Experimental data taken from patent US20240325575A1 (WHITEHEAD INSTITUTE FOR BIOMEDICAL RESEARCH, published 2024).
Results are given in words; binding and its absence hold for the method and conditions named. Some binding calls cover weakened binding; strength is not graded here.

Protein sequences, listed by entry. Tags and fused reporters are not part of them. Lines headed by an entry give the natural chain unless they say otherwise; changes in a name come on top. Residues count along the entry.
UniProt P05555, residues 17-1153: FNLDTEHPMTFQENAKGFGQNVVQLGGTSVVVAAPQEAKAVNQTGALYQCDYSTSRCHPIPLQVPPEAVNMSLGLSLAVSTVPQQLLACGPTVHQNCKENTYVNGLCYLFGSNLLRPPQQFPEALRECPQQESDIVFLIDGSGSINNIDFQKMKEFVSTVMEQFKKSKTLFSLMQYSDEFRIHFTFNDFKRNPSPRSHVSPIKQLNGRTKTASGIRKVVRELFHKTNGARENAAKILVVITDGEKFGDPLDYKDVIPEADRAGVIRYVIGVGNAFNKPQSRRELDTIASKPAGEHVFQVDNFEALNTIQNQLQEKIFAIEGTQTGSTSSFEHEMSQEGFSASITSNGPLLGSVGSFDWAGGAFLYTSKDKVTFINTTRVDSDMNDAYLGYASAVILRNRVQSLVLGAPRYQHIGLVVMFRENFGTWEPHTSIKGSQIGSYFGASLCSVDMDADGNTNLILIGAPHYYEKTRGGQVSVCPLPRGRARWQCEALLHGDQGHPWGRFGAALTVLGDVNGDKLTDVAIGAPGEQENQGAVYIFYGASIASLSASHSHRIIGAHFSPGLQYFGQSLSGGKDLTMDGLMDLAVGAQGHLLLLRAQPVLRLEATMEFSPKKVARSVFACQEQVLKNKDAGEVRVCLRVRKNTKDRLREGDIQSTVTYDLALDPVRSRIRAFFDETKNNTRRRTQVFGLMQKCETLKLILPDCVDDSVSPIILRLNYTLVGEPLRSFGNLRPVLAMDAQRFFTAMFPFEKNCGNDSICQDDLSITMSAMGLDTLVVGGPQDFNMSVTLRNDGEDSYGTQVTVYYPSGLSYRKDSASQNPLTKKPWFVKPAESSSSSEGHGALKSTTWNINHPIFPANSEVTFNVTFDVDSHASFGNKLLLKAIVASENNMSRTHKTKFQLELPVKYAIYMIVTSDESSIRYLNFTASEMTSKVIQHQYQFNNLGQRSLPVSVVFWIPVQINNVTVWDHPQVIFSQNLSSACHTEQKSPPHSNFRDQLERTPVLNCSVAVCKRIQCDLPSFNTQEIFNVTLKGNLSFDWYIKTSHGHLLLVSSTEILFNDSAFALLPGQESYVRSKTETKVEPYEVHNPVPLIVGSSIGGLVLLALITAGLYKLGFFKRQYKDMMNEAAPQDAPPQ
UniProt P14434: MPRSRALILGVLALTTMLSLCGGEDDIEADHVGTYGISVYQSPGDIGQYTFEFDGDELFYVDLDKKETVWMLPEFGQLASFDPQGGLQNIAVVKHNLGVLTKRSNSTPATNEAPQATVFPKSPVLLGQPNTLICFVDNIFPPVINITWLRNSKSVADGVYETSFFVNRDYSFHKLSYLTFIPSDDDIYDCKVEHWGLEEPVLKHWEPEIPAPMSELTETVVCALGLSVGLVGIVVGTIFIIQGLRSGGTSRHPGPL
UniProt P14483: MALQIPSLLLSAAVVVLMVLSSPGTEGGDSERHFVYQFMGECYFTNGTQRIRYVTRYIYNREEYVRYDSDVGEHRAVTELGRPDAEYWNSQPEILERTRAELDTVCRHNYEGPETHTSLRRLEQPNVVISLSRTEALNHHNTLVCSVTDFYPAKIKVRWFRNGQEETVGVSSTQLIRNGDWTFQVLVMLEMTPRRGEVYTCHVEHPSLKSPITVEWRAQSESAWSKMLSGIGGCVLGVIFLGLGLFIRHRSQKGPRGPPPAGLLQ

Assays:
[1] = molecular target: CD11b (mouse, on the CD11b+ mutuDC dendritic cell line and on myeloid cells in vivo) (mouse) (UniProt P05555); test: FACS on the CD11b+ mutuDC cell line in vitro
[2] = molecular target: Class II MHC (mouse, on splenocytes and lymphoid organs) (mouse) (UniProt P14434+P14483); test: in vivo PET competition; different amounts of unlabeled DC8 injected before 18F-DC8 dimer

binding [1] | binding [2] | Binder
binds |  | DC13 (anti CD11b VHH) monomer, sortase-labeled at the C-terminus (VHH, C-terminal (Gly)3 continues as -PEG12-Cys(Alexa647)-PEG5-Lys(azide)) VHH: QVQLQESGGGLVQTGGSLRLSCAASGVDFNWYSMGWFRQAPGKEREYVASIDQGGELDYAISVKGRFTISRDNAKNMVYLQMNSLKPEDTAVYYCAADFSGRGASNPDKYKYWGQGTQVTVSS
 | binds | unlabeled DC8 (anti Class II MHC VHH monomer used as competitor) (VHH) VHH: QVQLQESGGGLVQPGGSLRLSCTASGFTFSTYYMSWVRKAPGKGPEWVSVMNSSGGDTRYADFVKGRFTISRDNAKNTLYLQMNSLKPEDTALYYCAQGRSDIYPTFTRGQGTQVTVSS
